For two molecules, binding results are on record in article PMC12866826.

Results are given in words; binding and its absence hold for the method and conditions named. Binding seen in cells or lysates may run through a third protein. Some binding calls cover weakened binding; strength is not graded here.

The target in assay [1] is T1, TATA-box binding protein (TBP), mouse (mouse (endogenous in colonic crypt cells)) (UniProt P29037).
T1 sequence: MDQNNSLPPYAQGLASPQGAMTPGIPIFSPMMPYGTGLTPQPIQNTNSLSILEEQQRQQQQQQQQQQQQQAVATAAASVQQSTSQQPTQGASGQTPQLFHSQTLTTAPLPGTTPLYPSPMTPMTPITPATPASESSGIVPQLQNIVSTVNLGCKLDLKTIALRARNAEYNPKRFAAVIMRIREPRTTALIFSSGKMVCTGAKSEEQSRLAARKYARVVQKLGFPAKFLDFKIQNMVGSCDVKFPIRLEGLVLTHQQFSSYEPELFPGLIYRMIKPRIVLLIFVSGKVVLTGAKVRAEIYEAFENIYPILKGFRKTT
The experiment in a line: co-IP; reciprocal; mouse colonic crypt cell lysates immunoprecipitated with anti-DR5, anti-TBP or anti-IgG, protein A/G beads, detected by western blot.

Assay [2] deals with death receptor 5 (DR5), mouse (mouse (endogenous in colonic crypt cells)) (UniProt Q9QZM4). The description is as above.

B1: death receptor 5 (DR5), mouse (receptor, UniProt Q9QZM4 53-381)
chain: NPAHNRPAGLQRPEESPSRGPCLAGQYLSEGNCKPCREGIDYTSHSNHSLDSCILCTVCKEDKVVETRCNITTNTVCRCKPGTFEDKDSPEICQSCSNCTDGEEELTSCTPRENRKCVSKTAWASWHKLGLWIGLLVPVVLLIGALLVWKTGAWRQWLLCIKRGCERDPESANSVHSSLLDRQTSSTTNDSNHNTEPGKTQKTGKKLLVPVNGNDSADDLKFIFEYCSDIVPFDSWNRLMRQLGLTDNQIQMVKAETLVTREALYQMLLKWRHQTGRSASINHLLDALEAVEERDAMEKIEDYAVKSGRFTYQNAAAQPETGPGGSQCV
With B1, the binding entry in assay [1] is recorded as “binds”.

B2: TATA-box binding protein (TBP), mouse (protein, UniProt P29037 1-316)
chain: T1 sequence
As for B2, the binding entry in assay [2] is listed as “binds”.
